In paper PMC6992696, “Supramolecular tholos-like architecture constituted by archaeal proteins without functional annotation” (Scientific Reports, 2020):
No constants are given. Whether binding was seen depends on the method and setting. Some results given as binding are weak or reduced against the parent protein; the word gives no strength. For some assays here: Where a sequence is shown, tags or fusion partners need not be part of it.

Tests used:
[1] = target: T1, PbaA (PF0015) from Pyrococcus furiosus, full-length (Pyrococcus furiosus) (UniProt Q8U4Q9); experiment: SEC; 400 μM monomer of each protein mixed 1:1, dialyzed 12 h against 50 mM Tris-HCl pH 8.0, 200 mM NaCl, 2 mM DTT; HiTrapQ HP and HiLoad Superdex 200; both purified
T1 sequence: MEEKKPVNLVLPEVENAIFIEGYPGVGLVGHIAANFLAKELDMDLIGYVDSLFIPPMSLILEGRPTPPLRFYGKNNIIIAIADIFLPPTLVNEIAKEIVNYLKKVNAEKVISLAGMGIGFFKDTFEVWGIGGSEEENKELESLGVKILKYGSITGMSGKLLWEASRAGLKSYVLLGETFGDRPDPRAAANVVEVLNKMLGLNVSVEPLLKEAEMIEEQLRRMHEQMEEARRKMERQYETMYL

[2] = target: T1, PbaA (PF0015) from Pyrococcus furiosus, full-length (Pyrococcus furiosus); experiment: SEC + other: SAXS; SEC-SAXS of the equimolar PbaA/PF0014 mixture; 50 μL of 6 mg/ml on Superdex 200 Increase 10/300 GL, 50 mM Tris-HCl pH 8.0, 150 mM NaCl; both purified
[3] = target: T1, PbaA (PF0015) from Pyrococcus furiosus, full-length (Pyrococcus furiosus); experiment: negative stain EM; purified complexes at 1.0 mg/ml in 50 mM Tris-HCl pH 8.0, 150 mM NaCl, 2% uranyl acetate, single-particle analysis; both purified
[4] = target: T1, PbaA (PF0015) from Pyrococcus furiosus, full-length (Pyrococcus furiosus); experiment: iCM-SANS; complex of non-deuterated PbaA and 75%-deuterated PF0014, 3 mg/ml in 99.8% D2O, 50 mM Tris-HCl pH 8.0, 150 mM NaCl, 25 °C; both purified
[5] = target: T1, PbaA (PF0015) from Pyrococcus furiosus, full-length (Pyrococcus furiosus); experiment: HS-AFM; purified complexes, side views on bare mica, tapping mode, room temperature, 50 mM Tris-HCl pH 8.0, 150 mM NaCl; both purified
[6] = target: T2, N-terminally hexahistidine-tagged PbaA (Pyrococcus furiosus) (UniProt Q8U4Q9); experiment: cryo-EM structure; hexahistidine-tagged PbaA/Trx-PF0014 complex treated with excess anti-histidine-tag monoclonal antibody for 2 h at 4 °C; map at 14 Å, C1 symmetry; both purified
T2 sequence: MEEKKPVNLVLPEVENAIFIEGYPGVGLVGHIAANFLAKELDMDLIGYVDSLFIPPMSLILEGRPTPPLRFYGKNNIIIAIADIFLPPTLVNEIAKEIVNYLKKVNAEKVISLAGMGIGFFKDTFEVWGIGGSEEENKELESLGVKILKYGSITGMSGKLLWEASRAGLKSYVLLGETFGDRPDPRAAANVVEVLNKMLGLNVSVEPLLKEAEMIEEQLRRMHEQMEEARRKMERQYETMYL

Measured: binding

B1: PF0014 from Pyrococcus furiosus (natural protein, UniProt Q8U4R0 1-128, looked up)
chain: MVVEIPLLSGIARRTLDALMRNPIRTVEIRNARNYMTLEKVKEGDLVFLTYESLEDVMRGTEGIIAMVTRMEKSHQRVPWEESDEREISICRVQLKLVGLGRVVEVQEKNGVVFVKVREMLHHEISMG
notes: PF0014, Pyrococcus furiosus, an archaeal protein without functional annotation; Monomeric by HS-AFM when isolated; ten copies in the complex with PbaA
not listed: [6]
binds: all other assays above

B2: Trx-tagged PF0014 (Trx-PF0014) (protein, UniProt Q8U4R0 1-128)
chain: MVVEIPLLSGIARRTLDALMRNPIRTVEIRNARNYMTLEKVKEGDLVFLTYESLEDVMRGTEGIIAMVTRMEKSHQRVPWEESDEREISICRVQLKLVGLGRVVEVQEKNGVVFVKVREMLHHEISMG
binds: [3] | [6] | [5]
